{"source": "the supplement of paper PMC5407854", "about": "“Inhibitor of ppGalNAc-T3-mediated O-glycosylation blocks cancer cell invasiveness and lowers FGF23 levels” (eLife, 2017)", "note": "Over roughly 1,700 compounds, “T2 sensor activation Q score (MG/GFP ratio z-score vs DMSO controls)” has its median near 0.3; the highest 2% begin near 1.9. Some of the results follow.", "data": [{"tested_on": "ppGalNAc-T2 sensor", "experiment": "T2 sensor activation Q score (MG/GFP ratio z-score vs DMSO controls) (SD units); higher = more sensor activation (inhibition of ppGalNAc-T2 glycosylation)", "settings": "HEK293 sensor cells; 10 µM; 6 h", "procedure": "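Cells were treated with compound at 10 uM for 6 h, then MG/GFP ratio was read by flow cytometry (10,000 cells per well, duplicate wells). Q = (R - R_neg)/SD_neg relative to DMSO vehicle controls; the signal rises when the glycosyltransferase is inhibited.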", "values": [{"smiles": "CCOC(=O)Nc1c(Cl)n(C)c(=O)n(C)c1=O", "T2 sensor activation Q score": 0.8}, {"smiles": "CCOC(=O)C1(C#N)C(=O)CSC1=Nc1ccccc1Cl", "note": "(configuration not stated)", "T2 sensor activation Q score": 0.8}, {"smiles": "C=CCNC(=S)NCC", "T2 sensor activation Q score": 0.4}, {"smiles": "CSc1nc(Cl)c(Br)c(Nc2c[nH]c(=O)[nH]c2=O)n1", "T2 sensor activation Q score": 0.7}, {"smiles": "Cc1ccc(NC(=O)N2CCCCC2)cc1[N+](=O)[O-]", "T2 sensor activation Q score": 0.15}, {"smiles": "CSc1n[nH]c(-c2cccs2)n1", "T2 sensor activation Q score": 0.45}, {"smiles": "CCC(=Cc1ccc(CC)cn1)CC", "T2 sensor activation Q score": 1.85}, {"smiles": "Cn1ncc2c(Sc3ccc(Cl)cc3)ncnc21", "T2 sensor activation Q score": 1.3}, {"smiles": "Cn1ncc2c(Nc3ccc(Br)cc3)nc(Nc3ccc(Br)cc3)nc21", "T2 sensor activation Q score": 0.35}, {"smiles": "Nc1ccccc1-n1nc2ccc3ccccc3c2n1", "T2 sensor activation Q score": -1.5}, {"smiles": "O=C(c1ccccc1)c1ccc(Sc2ccc([N+](=O)[O-])cc2)cc1", "T2 sensor activation Q score": 7.7}, {"smiles": "CN1CCN(C(=O)Nc2ccc([N+](=O)[O-])cc2)CC1", "T2 sensor activation Q score": 0.5}, {"smiles": "Clc1ccc(C(c2ccccc2Cl)C(Cl)Cl)cc1", "note": "(configuration not stated)", "T2 sensor activation Q score": -1.6}, {"smiles": "O=C(Oc1ccccc1)N(c1ccccc1)c1ccccc1", "T2 sensor activation Q score": 0.35}, {"smiles": "C[C@]12CC[C@@H]3c4ccc(OCC(=O)O)cc4CC[C@H]3[C@@H]1CCC2=O", "T2 sensor activation Q score": -1.05}, {"smiles": "COC(=O)C1=CC(=O)N2CCN=C2S1", "T2 sensor activation Q score": 0.45}, {"smiles": "C=CCN(CC=C)C(=O)Nc1cc(OC)ccc1OC", "T2 sensor activation Q score": 0.9}, {"smiles": "COc1ccc(OC(=O)Nc2ccc([N+](=O)[O-])cc2OC)cc1", "T2 sensor activation Q score": 0.95}, {"smiles": "N[C@H](C(=O)O)[C@H]1ON=C(Cl)[C@H]1O", "T2 sensor activation Q score": -1.4}, {"smiles": "Nc1nc2[nH]cc(CCc3ccc(C(=O)N[C@@H](CCC(=O)O)C(=O)O)cc3)c2c(=O)[nH]1", "T2 sensor activation Q score": -0.75}, {"smiles": "O=[N+]([O-])c1ccc(/C=C/c2ccncc2)cc1", "T2 sensor activation Q score": -1.35}, {"smiles": "Nc1ccn(C2OC(CCl)C(O)C2O)c(=O)n1", "note": "(configuration not stated)", "T2 sensor activation Q score": -0.65}, {"smiles": "O=C(/C=C/c1ccccc1)CC(c1ccccc1)N1CCOCC1", "note": "(configuration not stated)", "T2 sensor activation Q score": -0.6}, {"smiles": "COC(=O)CC1OCC=C2CN3CCC45C6=CC(=O)C(=O)C([N+](=O)[O-])=C6NC4C1C2CC35", "note": "(configuration not stated)", "T2 sensor activation Q score": 0.85}, {"smiles": "CN(C)c1ccc(N=Nc2ccccn2)cc1", "T2 sensor activation Q score": -1.95}, {"smiles": "CCCCCC(=O)N1CCCCC1", "T2 sensor activation Q score": -1.85}, {"smiles": "C=CCNC(=S)Nc1cccc([N+](=O)[O-])c1", "T2 sensor activation Q score": -0.45}, {"smiles": "CC(C)NC(=O)c1ccc(C(C)C)cc1", "T2 sensor activation Q score": 1.15}, {"smiles": "CN(C)c1ccc(/C=C/c2ccc3ccccc3n2)cc1", "T2 sensor activation Q score": -1.2}, {"smiles": "O=c1[nH]nc(-c2cc(-c3ccccc3)nc3ccccc23)o1", "T2 sensor activation Q score": 1.55}, {"smiles": "S=c1[nH]ccn1-c1c(Cl)cccc1Cl", "T2 sensor activation Q score": 0.9}, {"smiles": "CSc1nc(Cl)cc(=O)[nH]1", "T2 sensor activation Q score": 0.15}, {"smiles": "O=C(C(Cl)Cl)N1CC2CCC(CC2)C1", "T2 sensor activation Q score": 0.3}, {"smiles": "CCOC(=O)N1CCN(Cc2c(O)ccc3ccccc23)CC1", "T2 sensor activation Q score": -0.05}, {"smiles": "CN(C)C(=O)OCC1COc2ccccc2O1", "note": "(configuration not stated)", "T2 sensor activation Q score": 0.5}, {"smiles": "CC1=NC2=CC=CC3=NC(C(Cl)(Cl)Cl)=NC(=N1)N23", "T2 sensor activation Q score": -0.9}, {"smiles": "c1ccc(Nc2cccc3c(Nc4ccccc4)cccc23)cc1", "T2 sensor activation Q score": 1.85}, {"smiles": "COc1cc2ncnc(Nc3ccc(F)c(Cl)c3)c2cc1OCCCN1CCOCC1", "T2 sensor activation Q score": -1.5}, {"smiles": "Cc1cccc(C)c1NC(=O)Nc1ccc(S(N)(=O)=O)cc1", "T2 sensor activation Q score": 1.55}, {"smiles": "C=C(C)C(=O)Nc1ccc(NC(C)C)cc1", "T2 sensor activation Q score": 0.8}, {"smiles": "NS(=O)(=O)c1cc2c(cc1Cl)NC(CC1CCCC1)NS2(=O)=O", "note": "(configuration not stated)", "T2 sensor activation Q score": 0.8}, {"smiles": "O=C(c1ccccc1)c1ccccc1C(=O)c1ccccc1", "T2 sensor activation Q score": 0.65}, {"smiles": "CCc1oc2ccccc2c1C(=O)c1cc(Br)c(O)c(Br)c1", "T2 sensor activation Q score": 0.3}, {"smiles": "CC/C(=C(\\c1ccccc1)c1ccc(OCCN(C)C)cc1)c1ccccc1", "T2 sensor activation Q score": -1.45}, {"smiles": "CCCSc1nc2c(c(=O)n(C)c(=O)n2C)n1C", "T2 sensor activation Q score": -0.05}, {"smiles": "NC(=O)NC1NC(=O)NC1=O", "note": "(configuration not stated)", "T2 sensor activation Q score": 0}, {"smiles": "O=C1c2cccc3cc([N+](=O)[O-])cc(c23)C(=O)N1CCN1CCCC1", "T2 sensor activation Q score": 0.7}, {"smiles": "O=C(/C=C/c1ccc(O)c(O)c1)OC1[C@H](O)CC(OC(=O)/C=C/c2ccc(O)c(O)c2)(C(=O)O)C[C@H]1O", "note": "(some centres not stated)", "T2 sensor activation Q score": 0.5}, {"smiles": "Cc1cc2cc3c(=O)[nH]c(=O)[nH]c3nc2cc1C", "T2 sensor activation Q score": -0.35}, {"smiles": "CC(C)c1cc(C(F)(F)F)nc(NNc2nc(C(C)C)cc(C(F)(F)F)n2)n1", "T2 sensor activation Q score": 0.1}, {"smiles": "CCC12CCCN3CCc4c(n(c5ccccc45)C(O)(C(=O)OC)C1)C32", "note": "(configuration not stated)", "T2 sensor activation Q score": -0.25}, {"smiles": "COc1ccc2[nH]c(-c3ccccc3)cc2c1", "T2 sensor activation Q score": -1.6}, {"smiles": "COc1ccc(C(=S)N2CCN(c3ccccc3C)CC2)cc1", "T2 sensor activation Q score": -0.85}, {"smiles": "Cc1c(Cl)cccc1NC(=O)CC1Sc2ccccc2NC1=O", "note": "(configuration not stated)", "T2 sensor activation Q score": 2}, {"smiles": "Cn1c(C(=O)c2ccncc2)cc2ccccc21", "T2 sensor activation Q score": -1.65}, {"smiles": "Cc1nc([C@H]2CC[C@H]3[C@@H]4CCC5=CC(=O)CC[C@]5(C)[C@H]4CC[C@]23C)cs1", "T2 sensor activation Q score": -0.15}, {"smiles": "Nc1ccc2c(c1Cl)C(=O)c1ccc(N)c(Cl)c1C2=O", "T2 sensor activation Q score": 0.3}, {"smiles": "O=[N+]([O-])c1cccnc1Oc1cc(Cl)c(Cl)cc1Cl", "T2 sensor activation Q score": 0.6}, {"smiles": "CCOc1ccc(/C=C2\\NC(=S)NC2=O)cc1", "T2 sensor activation Q score": 1.75}, {"smiles": "CSC(=O)NC(=O)NC(=O)c1ccc([N+](=O)[O-])cc1", "T2 sensor activation Q score": 1.05}, {"smiles": "COc1cc2c(O)cc(C(=O)O)c(-c3cc(OC)c(OC)c(OC)c3)c2cc1OC", "T2 sensor activation Q score": 0.35}, {"smiles": "CC1(C)CC(Nc2ccc(Nc3ccccc3)cc2)CC(C)(C)N1", "T2 sensor activation Q score": 1.05}]}]}
